Here are results for one molecule from US20150212086A1.

Chains of the proteins cited; added tags and fusions are not shown.
UniProt P11404: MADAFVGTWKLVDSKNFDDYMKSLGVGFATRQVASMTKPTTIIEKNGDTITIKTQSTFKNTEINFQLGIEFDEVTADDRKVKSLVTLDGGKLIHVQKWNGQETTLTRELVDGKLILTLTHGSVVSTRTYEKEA

Results are given in words; binding and its absence hold for the method and conditions named. Some entries that bind do so weakly or less than the wild type.

The target in experiment [1] is MDGI prey cDNAs from the murine embryonic (E12.5) cDNA library (yeast-two-hybrid hits) (mouse) (UniProt P11404). Nature of the experiment: yeast-two-hybrid screen.
Experiment [2] has the same target. As to the kind of experiment: yeast-two-hybrid screen, CooP bait against a murine embryonic E12.5 cDNA library.

B1: CooP peptide sequence as bait in the pGBKT7 vector (yeast-two-hybrid) (peptide, not shown: large carriers)
chain: CGLSGLGVA
Take B1: the binding result in experiment [1] and in experiment [2] was “binds” throughout.
